In assay [1] the target is Human epidermal growth factor receptor 2 (human (endogenous in NCI-N87)) (UniProt P04626). In words: flow cytometry on cells; NCI-N87 cells treated with 20 μg/ml FITC-AHNP-PEG for 2 h; competitive group pre-treated with 20 μg/ml AHNP-PEG for 1 h; compared to FITC-PEG; only the binder purified.
The target is the same in assay [2]. Kind of assay: co-IP; cells treated with 20 μg/mL FITC-AHNP-PEG with or without 20 μg/ml non-FITC AHNP-PEG at 4 °C for 4 h, lysed; supernatant precipitated with biotinylated HER2 antibody on streptavidin agarose beads at 4 °C overnight; fluorescence of immunoprecipitates read; only the binder purified.

Results are given in words; binding and its absence hold for the method and conditions named. For part of these data: Binding seen in cells or lysates may run through a third protein. Some entries that bind do so weakly or less than the wild type.

B1: polyethylene glycol (PEG) linked anti-HER2/neu peptide (peptide)
peptide: FCDGFYACYMDV
modifications: PEG conjugated (site not stated)
For B1, in assay [1], the binding result is “binds”.

B2: FITC-labeled AHNP-PEG (polyethylene glycol linked anti-HER2/neu peptide) (peptide)
peptide: FCDGFYACYMDV
modifications: FITC label (site not stated); PEG conjugated (site not stated)
As to B2, the binding entry in assay [1] and in assay [2] was “binds” throughout.

Values taken from article PMC6009821.
